Assay results published in the supplement of paper PMC7858590.
Several values for one entry are separate records, joined by “and”; a condition that tells them apart may be missing. Equal entries are not always repeated. ± gives the standard deviation of the averaged measurements. The full ranking holds about 3,800 compounds; the median of “cell shape (eccentricity) Z-score vs DMSO control” is about 1.1, and the lowest 2% start at about -4.7. The list shows a part of the results.

Tested on: human monocyte-derived macrophages (M0)
Test: cell shape (eccentricity) Z-score vs DMSO control; higher = more elongated, M2-like morphology
Settings: 20 µM; 24 h; macrophage state: M0 (M-CSF)

Row | Structure (SMILES) | cell shape (Z-score)
1 | O=C1C[C@H](c2ccc(O)cc2)Oc2c1c(O)cc(O)c2[C@@H]1C(=O)c2c(O)cc(O)cc2O[C@H]1c1ccc(O)cc1 | 3.49
2 | CC(C)ON([C@@H](C(=O)NO)C(C)C)S(=O)(=O)c1ccc(-c2ccccc2)cc1 | -0.0527
3 | Cc1nn(-c2ccccc2)c(C)c1C=NN1CCN(Cc2ccccc2)CC1 | 3.1
4 | C[C@@H]1O[C@@H](Oc2ccc(-c3coc4cc(O[C@@H]5O[C@@H](C)[C@H](O)[C@@H](O)[C@H]5O)ccc4c3=O)cc2)[C@H](O)[C@H](O)[C@H]1O | -1.35
5 | Cc1c[nH]c2ccccc12 | 1.98
6 | C[C@@H]1O[C@@H](Oc2ccc(C3Oc4cc(O)cc(O)c4C(=O)C3O)cc2O)[C@H](O)[C@H](O)[C@H]1O (some centres undefined) | -2.03
7 | CC1(C)CC[C@]2(C(=O)O[C@@H]3O[C@H](CO)[C@@H](O)[C@H](O)[C@H]3O)CC[C@]3(C)C(=CCC4[C@@]5(C)CC[C@H](O[C@@H]6O[C@H](C(=O)O)[C@@H](O[C@@H]7O[C@H](CO)[C@@H](O)[C@H](O)[C@H]7O)[C@H](O)[C@H]6O[C@@H]6O[C@H](CO)[C@@H](O)[C@H](O)[C@H]6O)C(C)(C)C5CC[C@]43C)C2C1 (some centres undefined) | 2.41
8 | CC(=O)N1CCN(c2ccc(OCC3COC(Cn4ccnc4)(c4ccc(Cl)cc4Cl)O3)cc2)CC1 (centres undefined) | -0.865
9 | CC(C)C[C@@H](C(=O)N[C@H](C(=O)OC1CCCC1)c1ccccc1)[C@H](O)C(=O)NO | 3.43
10 | COc1cc(/C=C/C(=O)N2CCC=CC2=O)cc(OC)c1OCCN(C)CCOc1c(OC)cc(/C=C/C(=O)N2CCC=CC2=O)cc1OC | -1.38
11 | NC(=O)N1c2ccccc2CC(=O)c2ccccc21 | 1.73
12 | COc1cc2nccc(Oc3ccc(NC(=O)Nc4cc(C)on4)c(Cl)c3)c2cc1OC | 9.02
13 | CN(C)CCOC(C)(c1ccccc1)c1ccccn1 (centres undefined) | 4.82
14 | COc1cccc(-c2cc(=O)c3ccccc3o2)c1N | 1.41
15 | CCCC(O)c1ccc(C)cc1CCCCCC(=O)O (centres undefined) | 0.984
16 | O=C(c1ccc(O)cc1)c1c(O)cc(O)c([C@@H]2O[C@H](CO)[C@@H](O)[C@H](O)[C@H]2O)c1O | 1.87
17 | COc1ccccc1OCC(O)CNC(C)C (centres undefined) | 0.567
18 | CN(C(=O)C(Cl)Cl)c1ccc(OC(=O)c2ccco2)cc1 | 0.773
19 | CCc1cc(C(=N)S)ccn1 | 2.08
20 | CC(C)CC1NC(=O)C(C)NC1=O (centres undefined) | -5.83
21 | O=c1cc(-c2ccccc2)oc2c(O)c(O)ccc12 | 2.09

Row | Structure (SMILES) | cell shape (Z-score)
22 | COc1ccc(CCC(=O)O)c(O[C@@H]2O[C@H](CO)[C@@H](O)[C@H](O)[C@H]2O)c1 | -1.87
23 | CCC/C=C/C=C/C1CC(O)C(O)C1C(=O)O (centres undefined) | 0.135
24 | CCCC1OC2CC3C4CCC5=CC(=O)C=CC5(C)C4C(O)CC3(C)C2(C(=O)CO)O1 (centres undefined) | -2.27
25 | COc1cc(/C=C/C=O)cc(OC)c1O | -0.421
26 | O=C(O)[C@@]1(CCCCCCOc2ccc(Cl)cc2)CO1 | 1.33
27 | COc1cc(C2c3c(cc(OC)c(O)c3OC)CC(CO)C2COC2OCC(O)C(O)C2O)cc(OC)c1O (centres undefined) | 0.924
28 | C=C(C)C1CCC2(C(=O)O)CCC3(C)C(CCC4C5(C)C(C=O)C(O)C(C)(C)C5CCC43C)C12 (centres undefined) | 0.621
29 | C/C(=C/C(=O)O)CCC1C(C)CCC2C(C)(C=O)C(O)CCC12C (centres undefined) | 0.69 ± 0.12
30 | CS(=O)(=O)c1ccc(Cn2c3c(c4cc(F)cc(F)c42)CCCC3CC(=O)O)cc1 (centres undefined) | 0.493
31 | COC(=O)Nc1nc2ccc(Sc3ccccc3)cc2[nH]1 | -3.02
32 | COc1ccc2c(c1OC)C(=O)O[C@H]2[C@H]1c2c(cc3c(c2OC)OCO3)CCN1C | 3.82
33 | CC(C)C(O)(C(=O)OCc1ccc(O[C@@H]2O[C@H](CO)[C@@H](O)[C@H](O)[C@H]2O)cc1)C(C)O (some centres undefined) | 2.15 ± 2.6
34 | CCc1nc(N)nc(N)c1-c1ccc(Cl)cc1 | -0.187
35 | OC[C@H]1O[C@@H](n2cnc3c(NCc4ccco4)ncnc32)[C@H](O)[C@@H]1O | -3.05
36 | CC1(C)O[C@@H]2CC3C4C[C@H](F)C5=CC(=O)CC[C@]5(C)C4[C@@H](O)C[C@]3(C)[C@]2(C(=O)CO)O1 (some centres undefined) | -0.585
37 | CC(C)NCC(O)COc1ccc(CCOCC2CC2)cc1 (centres undefined) | 1.97
38 | C=C1C(=O)O[C@@H]2C3=C(C)CC[C@]34O[C@@H](C[C@@H]4C)[C@H]12 | -3.31 ± 3.9
39 | OC[C@H]1O[C@@H](OCc2ccccc2)[C@H](O[C@@H]2OC[C@](O)(CO)[C@H]2O)[C@@H](O)[C@@H]1O | -0.784 ± 0.66
40 | CCSC(=N)N | -1.01
41 | OC[C@H](Cc1ccccc1)Nc1nc(Oc2ccc3c(c2)CCC3)nc2c1ncn2Cc1ccc(-c2ccccc2)cc1 | 9.9
42 | COc1cccc2oc(-c3ccccc3)cc(=O)c12 | -0.482 ± 2.3

Retrieved one by one from the list above (5):
Row | Structure (SMILES) | cell shape (Z-score)
32 | COc1ccc2c(c1OC)C(=O)O[C@H]2[C@H]1c2c(cc3c(c2OC)OCO3)CCN1C | 3.82
34 | CCc1nc(N)nc(N)c1-c1ccc(Cl)cc1 | -0.187
26 | O=C(O)[C@@]1(CCCCCCOc2ccc(Cl)cc2)CO1 | 1.33
42 | COc1cccc2oc(-c3ccccc3)cc(=O)c12 | -0.482 ± 2.3
39 | OC[C@H]1O[C@@H](OCc2ccccc2)[C@H](O[C@@H]2OC[C@](O)(CO)[C@H]2O)[C@@H](O)[C@@H]1O | -0.784 ± 0.66

Later entries:

Row | Structure (SMILES) | cell shape (Z-score)
43 | COC1=CC(=O)CC(C)C12Oc1cc(OC)cc(OC)c1C2=O (centres undefined) | -1.79
44 | Cc1ncc([N+](=O)[O-])n1CC(O)CCl (centres undefined) | 1.9
45 | C=C1CC[C@H]2[C@](C)(CCC[C@]2(C)C(=O)OC)[C@H]1CC/C(C)=C/C(=O)O | 1.3
46 | C[N+]1(C)C2CC[C@H]1C[C@@H](OC(=O)C(O)c1ccccc1)C2 (some centres undefined) | 1.91
47 | COc1cc(C=Cc2ccc(OC)cc2OC)cc(OC)c1 | 3.14
48 | CC[C@H](C)C(=O)O[C@H]1C[C@@H](C)C=C2C=C[C@H](C)[C@H](CC[C@@H]3C[C@@H](O)CC(=O)O3)[C@H]21 | -1.06
49 | OC1C=CC(O)C23OC12C(O)C=CC31Oc2cccc3cccc(c23)O1 (centres undefined) | -0.329
50 | CN=c1nc(-c2ccccc2)n(-c2ccccc2)s1 | 4.02
51 | OC(CCCN1CCN(c2ncc(F)cn2)CC1)c1ccc(F)cc1 (centres undefined) | 3.37
52 | C=C(C)C(=O)O[C@@H]1C2=C(C)C(=O)OC2(O)CC23OC2CC[C@H](C)[C@@]13C (some centres undefined) | 1.41
53 | COc1ccc(/C=C/C(=O)c2ccc(O)cc2O)cc1 | -5.34
54 | CCOc1cc(/C=C2\C(=O)N(c3ccccc3)N=C2C)cc(Cl)c1OCC(=O)OC | 1.49
55 | C/C=C(/C)C(=O)OC(C)(C)C1Cc2cc3ccc(=O)oc3cc2O1 (centres undefined) | 2.97
56 | C=CCNC(=O)c1cc([N+](=O)[O-])cc2c(=O)[nH]c(Nc3ccc(Cl)c(Cl)c3)nc12 | 1.34
57 | N=C(N)NCCNS(=O)(=O)c1cccc2cnccc12 | 5.63
58 | O=C(OCC1OC(Oc2ccc(O)cc2COC(=O)C2(O)C(O)CCC2(O)C(=O)O)C(O)C(O)C1O)c1ccccc1 (centres undefined) | 0.557
59 | CC(C)CCCC(C)(O)c1ccc(C(=O)O)cc1O (centres undefined) | 0.842
60 | COc1cc(C2OC(c3ccc(O)c(OC)c3)C(C)(O)C2C)ccc1O (centres undefined) | -0.34
61 | Cc1c(C(=O)NN2CCCCC2)nn(-c2ccc(Cl)cc2Cl)c1-c1ccc(I)cc1 | -0.11
62 | CC1(C)CCC(C)(C)c2cc([C@@H](O)C(=O)Nc3ccc(C(=O)O)cc3F)ccc21 | 5.37
63 | COC(=O)c1cc(O)cc(O)c1C(=O)c1c(O)c(Cl)c(C)c(Cl)c1OC | 2.39

Row | Structure (SMILES) | cell shape (Z-score)
64 | O=C(/C=C/c1ccccc1)OC[C@]12O[C@H]1[C@@H](O)[C@@H]1C=CO[C@@H](O[C@@H]3O[C@H](CO)[C@@H](O)[C@H](O)[C@H]3O)[C@@H]12 | -0.606
65 | COC(=O)C[C@H]1C(C)(C)C(=O)[C@@H]2CC3=C4CC(=O)O[C@@H](c5ccoc5)[C@]4(C)CCC3[C@@]1(C)C2=O (some centres undefined) | -1.24
66 | Cc1nc2sccn2c(=O)c1CCN1CCC(=C(c2ccc(F)cc2)c2ccc(F)cc2)CC1 | 4.15
67 | C=C1C(N)CC2CC1C2(C)C (centres undefined) | -2.56
68 | O=C1OCCN1/N=C/c1ccc([N+](=O)[O-])o1 | -1.99
69 | FC(F)c1nc2ccccc2n1-c1nc(N2CCOCC2)nc(N2CCOCC2)n1 | -3.24
70 | COc1ccc(O)cc1 | 0.328
71 | COc1cc2c(c(O)c1CO)C(=O)CCC2O (centres undefined) | -2.26
72 | COc1ccc(OC)c(/C=C/C(=O)O)c1 | 0.305 ± 1.6
73 | O=C(O)Cc1nn(Cc2nc3cc(C(F)(F)F)ccc3s2)c(=O)c2ccccc12 | 1.57
74 | COc1cc(/C=C/c2cc(O)cc(O[C@@H]3O[C@H](CO)[C@@H](O)[C@H](O)[C@H]3O)c2)ccc1O[C@@H]1O[C@H](CO)[C@@H](O)[C@H](O)[C@H]1O | 2.22
75 | C=C1CCC2(C(=O)OC3OC(CO)C(O)C(O)C3OC3OCC(O)C(O)C3O)CCC3(C)C(=CCC4C5(C)CCC(OC6OC(CO)C(O)C(O)C6O)C(C)(CO)C5CCC43C)C2C1 (centres undefined) | 3.19
76 | Fc1ccc(C(c2ccc(F)cc2)N2CCN(C/C=C/c3ccccc3)CC2)cc1 | 1.81
77 | CN(Cc1cnc2nc(N)nc(N)c2n1)c1ccc(C(=O)N[C@@H](CCC(=O)O)C(=O)O)cc1 | 1.41 and 2.41
78 | C=C1[C@@H](C2=CC(=O)OC2)CC[C@@]2(O)[C@@H]1CC1[C@H]2CC[C@@H]2C[C@@H](O[C@H]3O[C@@H](C)[C@@H](O[C@@H]4O[C@H](CO[C@@H]5O[C@H](CO)[C@@H](O)[C@H](O)[C@H]5O)[C@@H](O)[C@H](O)[C@H]4O)[C@H](OC)[C@H]3O)CC[C@]12C (some centres undefined) | -4.99
79 | C=CC(C)(O)C(O)CC1C(=C)CCC2C(C)(C(=O)O)CCCC12C (centres undefined) | 0.279 ± 2.5
80 | CC1=C2CCC(C(=O)O)=CC2C(C(C)C)CC1 (centres undefined) | 0.308
81 | C#C[C@]1(O)CCC2C3CCc4cc(OC)ccc4C3CC[C@@]21C (some centres undefined) | 1.4
82 | C[C@@H]1CC2C3CCC4=CC(=O)C=C[C@]4(C)[C@@]3(F)[C@@H](O)C[C@]2(C)[C@@]1(O)C(=O)CO (some centres undefined) | -0.196
83 | C[C@@H]1O[C@@H](O[C@H]2[C@H](O[C@H]3[C@H](O)[C@@H](C(=O)O)O[C@@H](O[C@H]4CC[C@@]5(C)C(CC[C@]6(C)C5CC[C@]57OC[C@@]8(CCC(C)(C)CC85)[C@H](O)C[C@]76C)C4(C)C)[C@@H]3O[C@@H]3O[C@H](CO)[C@@H](O[C@@H]4OC[C@@H](O)[C@H](O)[C@H]4O)[C@H](O)[C@H]3O)O[C@H](CO)[C@H](O)[C@@H]2O)[C@H](O)[C@H](O)[C@H]1O (some centres undefined) | -1.16
84 | COc1c(OC)c(O)c2c(=O)cc(-c3ccc(O)cc3)oc2c1OC | 0.968 ± 2.1
